# For at least one compound, name, drawing or mass did not settle the structure.
# Tested on: 3T3-L1 preadipocytes
# Assay: MTT lipid-lowering (adipocyte-degrading) activity analysis on 3T3-L1 preadipocyte line
# Format: cell-based
# Conditions: H-LEP 10^−9M, Ros 0.5 μM vs. PBS, P<0.05
# Protocol: Lipid degradation activity of the synthesized leptin active peptide having CD-loop and helix E region mutations is analyzed on a cellular level by taking a 3T3-L1 preadipocyte line as a model. Specific operations are as follows:
# a. leptin active peptide having CD-loop and helix E region mutations (PEP-E): diluted to 10^−3M with purified water and preserved at −20 degree C. for later use. After an experiment is started, working concentrations have 3 concentration gradients, that is, 10^−6M, 10−9M and 10^−11M;
# b. positive control 1: H-LEP recombinant human-derived leptin protein (10221-HNAE, Beijing Sino Biological Inc.), diluted to 10^−6M with purified water and preserved at −20 degree C. for later use. After an experiment is started, the working concentration is 10^−9M. […]
# d. negative control (Control): equivalent quantity of PBS […]
# ii, when culturing to 45 hours (that is, 3 hours before the end of drug treatment), taking out the plate a, and measuring MTT (preadipocytes). Specific operations: adding 20 μL of 5 mg/mL of MTT solution into each well, continuously standing and culturing at 37 degree C. in the 5% CO2 incubator for 3 hours, sucking and discarding the culture solution in the wells, adding 150 μL of DMSO into each well, horizontally shaking for 10 min, detecting a light absorption value at 492 nm by a microplate reader, and drawing a growth curve. […]
smiles,measurement,value
"CN(CCOc1ccc(CC2SC(=O)NC2=O)cc1)c1ccccn1 (stereo not shown) [Ros, rosiglitazone, reference compound]",adipocyte lysis activity of positive control vs. negative control,obviously better than that of the negative control
